Laboratory results: paper PMC5301048, “Selection and early clinical evaluation of the brain‐penetrant 11β‐hydroxysteroid dehydrogenase type 1 (11β‐HSD1) inhibitor UE2343 (Xanamem™)” (British Journal of Pharmacology, 2017)

Experiments:
[1] = tested on: HPA axis hormones and steroids; assay: Single ascending dose study, HPA axis hormones and steroids; format: in vivo; settings: human
[2] = tested on: HPA axis hormones and steroids; assay: Multiple ascending dose study, HPA axis hormones and steroids; format: in vivo; settings: human, in words
Procedure: A double‐blind, randomized, placebo‐controlled multiple ascending dose study was carried out at Linear Clinical Research Ltd, Nedlands, Australia. Each cohort consisted of eight healthy male subjects. Each subject received UE2343 or placebo twice daily (b.i.d ) (12 hourly) in the fed state for 9 days (Day 1 to Day 9) and once on the morning of Day 10 (19 doses in total). Dose cohorts were 10, 20 and 35 mg. Dose escalation and selection was dependent upon satisfactory review of the blinded safety (up to Day 17 ± 2) and plasma pharmacokinetics (up to Day 12) data from the preceding cohort. Safety, pharmacokinetic and pharmacodynamic assessments were made at pre‐determined time‐points during each part of the study.
Laboratory evaluation of clinical safety parameters was carried out using standard validated methods. Measurement of plasma pharmacodynamic markers [adrenocorticotropic hormone (ACTH), cortisol, 4‐androstenedione, testosterone and dehydroepiandrosterone sulphate (DHEA‐s)] was carried out using commercially available kits. Each method was fully validated prior to analysis. Urinary steroid metabolites were measured according to established methods (Boonen et al., 2013). UE2343 levels in plasma, urine and CSF was determined by LC–MS/MS using fully validated methods.
The data and statistical analysis comply with the recommendations on experimental design and analysis in pharmacology (Curtis et al., 2015). Levels of probability, P < 0.05 were deemed to constitute the threshold for statistical significance. Pharmacokinetic parameters, except Tmax (time of maximum observed drug concentration), are given as mean ± coefficient of variation (CV%). Tmax is given as median ± range. For each of the pharmacodynamic parameters [ACTH, cortisol, adrenal androgens, tetrahydrocortisols (THFs)/tetrahydrocortisone (THE) ratio], the maximum % change from baseline for each subject was subjected to ANOVA. For selected data, an additional covariate factor for the baseline was also included in the ANOVA/analysis of covariance (ANCOVA) model. […]

O=C(c1csc(-c2cn[nH]c2)c1)N1C2CCC1CC(O)(c1ncccn1)C2 (stereo not drawn) [compound 4]
time post‐dose by which ACTH values had returned to baseline ([1]; single dose): approximately 47 h
plasma ACTH ([1]; single dose, across the 18–35 mg dose range, in words): dose‐dependent increase
DHEA‐s compared to placebo ([1]; single dose, significant at 2, 5 and 35 mg (P < 0.05), in words): higher
effect on 4‐androstenedione levels ([1]; single doses 2–35 mg, in words): no effect
effect on serum cortisol levels ([1]; single doses 2–35 mg, in words): no effect
effect on testosterone levels ([1]; single doses 2–35 mg, in words): no effect
4‐androstenedione change from baseline compared with placebo ([2]; 10 and 20 mg b.i.d (P < 0.05)): statistically significant increases
changes in cortisol, testosterone, 4‐androstenedione or DHEA‐s ([2]; multiple doses 10–35 mg b.i.d): No dose‐dependent relationship
DHEA‐s change from baseline ([2]; multiple doses, significant vs placebo at 10 and 35 mg): increased from baseline
